Measured values taken from US20120053076A1, “METHODS FOR IDENTIFICATION” (Cambridge Enterprise Limited, priority 2009, published 2012).

Assays:
THP-1 cells = assay: MCP-1 induced THP-1 cell migration, Transwell assay; assay type: cell-based, human; conditions: for “Classical”:“BSCI” potency ratio Human: Table 3, insulin suppression vs THP-1 migration; for RATIO: classical vs BSCI potency
Experimental: Leukocyte migration was measured using the 96-well format micro Transwell® assay system from Neuroprobe (Gaithersburg, Md., USA). In principle, this assay consists of two chambers separated by a porous membrane. The chemoattractant is placed in the lower compartment and the cells are placed in the upper compartment.
The method was performed essentially as previously described (Reckless & Grainger (1999) Biochem. J. 340:803-11).
First, the cell suspension to be placed in the upper compartment was prepared. The THP-1 cells were pelleted by centrifugation (770×g; 4 mins) and washed with Geys Balanced Salt Solution with 1 mg/ml BSA (GBSS+BSA). This wash was then repeated, and the cells re-pelleted before being resuspended in a small volume of GBSS+BSA for counting, for example using a standard haemocytometer.
The volume of GBSS+BSA was then adjusted depending on the number of cells present so that the cells were at final density of 4.45×10^6 cells per ml of GBSS+BSA. This ensured that there were 100,000 THP-1 cells in each 25 μl of the solution to be placed in the upper chamber of the plate.
The suspension of THP-1 cells at 4.45×10^6 cells/ml was divided into three pots. […] To the second pot, the BSCI was added at the same concentration as in the first pot, but additionally the sstr2 antagonist was also added (for example BIM 23454 [Tulipano et al. (2002) 143:1218-24] or BIM 23627 were added at 66 nM final concentration from a stock solution in GBSS). To the third pot, GBSS+BSA plus vehicle as appropriate was added so that the volumes in three pots are equal, acting as a control.
Next, the chemoattractant solution to be placed in the lower compartment was prepared. MCP-1 was diluted in GBSS+BSA to give a final concentration of 25 ng/ml (after all additions). Note that, as recommended by Frow et al (Med. Res. Rev. 24:276-98) this is the concentration of MCP-1 which induces maximal migration in this system. This solution was divided into three pots, as for the cell suspension. To one pot, the BSCI was added to the same final concentration as was added to the cell suspension, in the second pot the BSCI and the sstr2 antagonist were both added at the same concentration as previously added to the cell suspension, while to the remaining pot GBSS+BSA plus vehicle as appropriate was added so that the volumes in the three pots were equal.
Once the chemoattractant solutions for the lower wells and cell solutions for the upper chambers were prepared, the migration chamber was assembled. 29 μl of the appropriate chemoattractant solution was placed into the lower well of the chamber. Assays were performed with at least triplicate determinations of each condition. Once all the lower chambers were filled, the porous membrane was applied to the chamber in accordance with the manufacturer's instructions. Finally, 25 μl of the appropriate cell solution was applied to each upper chamber. A plastic lid was placed over the entire apparatus to prevent evaporation.
The assembled chamber was incubated at 37° C., 5% CO2, for 2 hours.
At the end of the incubation, the liquid cell suspension was gently removed from the upper chamber, 20 μl of ice-cold 20 mM EDTA in PBS was added to the upper chamber, and the apparatus was incubated at 4° C. for 15 mins. This procedure caused any cells adhering to the underside of the membrane to fall into the lower chamber.
After this incubation the filter was carefully flushed with GBSS+BSA to wash off the EDTA, and then the filter was removed.
The number of cells migrated into the lower chamber under each condition can then be determined by a number of methods, including direct counting, labelling with fluorescent or radioactive markers or through the use of a vital dye. Typically, we utilised the vital dye MTT.

[1] = tested on: rat peripheral blood leukocytes; assay: Rat chemokine-induced PBMC migration assay; assay type: cell-based; conditions: Table 3; GH suppression vs rat PBMC migration

| Molecule | “Classical”:“BSCI” potency ratio Human (THP-1 cells) | “Classical”:“BSCI” potency ratio Rat [1] | RATIO (THP-1 cells; Table 4) | RATIO (THP-1 cells; Table 5) |
| --- | --- | --- | --- | --- |
| O=C1NCCCC[C@@H]1NC(=O)C12CC3CC(CC(C3)C1)C2 [BN83470, (S)-3-(admantane-1′-carbonylamino)-caprolactam] | <0.00008 | 0.0008 |  |  |
| C[C@@H](c1c[nH]c2ccccc12)[C@@H](NC(=O)N1CCC(n2c(=O)[nH]c3ccccc32)CC1)C(=O)NC[C@@H]1CCC[C@H](CN)C1 [L-779,976] | 27 |  | 26.5 | 26.5 |
| CC(C)(C)C(=O)N[C@H]1CCCNC1=O [Valerolactam, (S)-3-(2′,2′-dimethylpropionoylamino)-tetrahydropyridin-2-one] | <0.00005 | 0.0009 |  |  |
| (S)-3-(2′,2′-dimethyldodecanoyl)amino-caprolactam [BN83250] |  |  |  | <0.00009 |
